The target of the experiment is shFcRn-GST (GST-fused soluble human FcRn, heterodimeric) (human) (UniProt P55899+P61769). Briefly: SPR, 25-50 nM over immobilized shFcRn-GST, pH 6.0 and pH 7.4.

By UniProt entry, the sequences of proteins in these tests, tags left out. Where a name states a change or a piece, a line headed by the entry shows the natural chain unless it says otherwise.
UniProt P55899: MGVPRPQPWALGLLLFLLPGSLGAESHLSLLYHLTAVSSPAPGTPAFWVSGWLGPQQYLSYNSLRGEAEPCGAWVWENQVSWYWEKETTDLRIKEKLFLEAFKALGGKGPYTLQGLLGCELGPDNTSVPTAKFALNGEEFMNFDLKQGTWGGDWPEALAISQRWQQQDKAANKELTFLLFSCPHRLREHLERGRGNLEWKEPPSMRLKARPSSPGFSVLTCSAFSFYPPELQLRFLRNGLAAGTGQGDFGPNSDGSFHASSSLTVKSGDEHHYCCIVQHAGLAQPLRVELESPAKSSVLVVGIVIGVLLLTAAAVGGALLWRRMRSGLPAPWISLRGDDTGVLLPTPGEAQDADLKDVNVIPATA
UniProt P61769: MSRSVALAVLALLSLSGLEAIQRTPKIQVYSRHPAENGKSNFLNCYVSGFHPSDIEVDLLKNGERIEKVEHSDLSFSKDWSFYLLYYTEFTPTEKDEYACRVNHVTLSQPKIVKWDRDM

Results are given in words; binding and its absence hold for the method and conditions named. Some binding calls cover weakened binding; strength is not graded here.

B1: 218-H4_20GS_218-H4 (bivalent Nb 218-H4) (VHH)
chain: EVQLVESGGALVQAGGSLRLSCVASGRTFNSIGMGWFRQAPGKERDFIGGITWDGRDTYYTDSVKGRFTISRDNAKNTVYLQMNSLKPWDTAVYYCAANRDPWIATSYQDYAYWGQGTQVTVSSGGGGSGGGGSGGGGSGGGGSEVQLVESGGALVQAGGSLRLSCVASGRTFNSIGMGWFRQAPGKERDFIGGITWDGRDTYYTDSVKGRFTISRDNAKNTVYLQMNSLKPWDTAVYYCAANRDPWIATSYQDYAYWGQGTQVTVSS
As for B1, the binding result is on record as “binds”.
